22 compounds from the supplement of paper PMC11348887 can be followed below.

Conditions in all cases: 5 µM; treatment: days 7-14 after plating, readout day 21
Test [1] concerns hPSC-derived cortical neurons (WA09). The experiment in a line: nucleus area z-score vs screen plate; higher = larger nuclei (more mature).
For test [2] the test system is unchanged. The experiment in a line: total neurite length per nucleus (MAP2) z-score; higher = more neurite growth.
Test [3] shares this test system. The experiment in a line: nucleus roundness z-score vs screen plate; higher = rounder nuclei (more mature).
Test [4] has the same test system. The experiment in a line: KCl-induced FOS+/EGR-1+ double-positive nuclei fraction z-score (KCl minus unstimulated); higher = stronger activity-induced IEG response.

Counter-ions that a name gives are not always drawn. The list shows a part of the results. Most values lie at the level of the controls, where differences are scatter.

On to `CN1CCCCC1CCN1c2ccccc2Sc2ccc([S+](C)[O-])cc21` (stereo not drawn) [Mesoridazine Besylate], for which the nucleus area z-score in test [1] stood at 0.234. For the same compound, in test [2], the “total neurite length per nucleus (z-score)” value is -0.684. In test [3], this compound came in with a nucleus roundness z-score of -1.46. Besides, the “KCl-induced FOS+/EGR-1+ double-positive nuclei fraction z-score” value in test [4] is -0.92.
Turning to `Cn1ncc(Cl)c1-c1cc(C(=O)N[C@H](CN)Cc2cccc(F)c2)sc1Cl`, the nucleus area z-score in test [1] is -6.01. Besides, the “total neurite length per nucleus (z-score)” value in test [2] was -2.48. In addition, the nucleus roundness z-score in test [3] is -2.08. Moreover, the “KCl-induced FOS+/EGR-1+ double-positive nuclei fraction z-score” value in test [4] was -0.447.
The corresponding values for `Cc1cc(C)nc(NS(=O)(=O)c2ccc(N)cc2)n1` [Sulfamethazine] are 1.03, 0.3, 0.236 and -1.61.
The corresponding values for `COc1cccc(-c2cc(=O)c3ccccc3o2)c1N` are 3.8, 0.0992, 0.643 and 1.81.
The corresponding values for `COC(=O)N[C@@H](C)CNc1nccc(-c2cn(C(C)C)nc2-c2cc(Cl)cc(NS(C)(=O)=O)c2F)n1` are 0.632, -0.939, -2.33 and -0.592.
On to `CCCCC(F)(F)[C@@]1(O)CC[C@H]2[C@@H](CC(=O)[C@@H]2CCCCCCC(=O)O)O1` [Lubiprostone], for which the nucleus area z-score in test [1] is -1.66. The “total neurite length per nucleus (z-score)” value in test [2] came out at 0.493. The same compound displayed a nucleus roundness z-score in test [3] of -0.463. Besides, in test [4], the “KCl-induced FOS+/EGR-1+ double-positive nuclei fraction z-score” value is -0.45.
The corresponding values for `Cc1onc(-c2c(Cl)cccc2Cl)c1C(=O)N[C@@H]1C(=O)N2[C@@H]1SC(C)(C)[C@@H]2C(=O)O` [Dicloxacillin Sodium] are 0.309, -0.958, -0.625 and -1.3.
With `C[C@@H](NCCCc1cccc(C(F)(F)F)c1)c1cccc2ccccc12` [Cinacalcet HCl], in test [1], the nucleus area z-score is -0.3. In addition, the “total neurite length per nucleus (z-score)” value in test [2] was -1.58. For the same compound, in test [3], the nucleus roundness z-score was -0.441. Also, in test [4], the “KCl-induced FOS+/EGR-1+ double-positive nuclei fraction z-score” value was determined as 0.0283.
The corresponding values for `Fc1ccc(CNc2ncnc3ccc(F)cc23)cc1` [Spautin-1] are 0.314, 0.0789, -0.0482 and -1.36.
The corresponding values for `CN(Cc1ccc(C(C)(C)C)cc1)Cc1cccc2ccccc12` [Butenafine HCl] are -0.0939, 0.489, 1.02 and -0.676.
Regarding `CC1=NN(c2ccccc2)C(=O)C1` [Edaravone], the nucleus area z-score in test [1] is -0.145. Also, in test [2], the “total neurite length per nucleus (z-score)” value was -0.307. For the same compound, the nucleus roundness z-score in test [3] was -0.94. The “KCl-induced FOS+/EGR-1+ double-positive nuclei fraction z-score” value in test [4] turned out to be 0.591.
The corresponding values for `CC(C)(O)CC(=O)NCCn1ccc2ncnc(Nc3ccc(Oc4cccc(C(F)(F)F)c4)c(Cl)c3)c21` are 0.328, 0.649, 0.00406 and 0.705.
The corresponding values for `C[C@@H]1C[C@H]2[C@@H]3CCC4=CC(=O)C=C[C@]4(C)[C@@]3(F)[C@@H](O)C[C@]2(C)[C@@]1(O)C(=O)CO` [Dexamethasone (DHAP)] are 1.04, 0.521, 0.182 and 0.295.
The corresponding values for `O=C(O)CCCN1CCC(O[C@@H](c2ccc(Cl)cc2)c2ccccn2)CC1` [Bepotastine Besilate] are 0.317, 0.0829, 0.533 and 0.27.
In the case of `CC(=O)O[C@@]12CO[C@@H]1C[C@H](O)[C@@]1(C)C(=O)[C@H](O)C3=C(C)[C@@H](OC(=O)[C@H](O)[C@@H](NC(=O)OC(C)(C)C)c4ccccc4)C[C@@](O)([C@@H](OC(=O)c4ccccc4)[C@H]21)C3(C)C` [Docetaxel Trihydrate], the nucleus area z-score in test [1] was -0.952. Further, the “total neurite length per nucleus (z-score)” value in test [2] came to 2.43. In test [3], the nucleus roundness z-score is -4. Also, the “KCl-induced FOS+/EGR-1+ double-positive nuclei fraction z-score” value in test [4] is -1.18.
The corresponding values for `COC(=O)N[C@H](C(=O)N[C@@H](Cc1ccccc1)[C@@H](O)CN(Cc1ccc(-c2ccccn2)cc1)NC(=O)[C@@H](NC(=O)OC)C(C)(C)C)C(C)(C)C` [Atazanavir Sulfate] are 0.833, 0.647, -0.233 and 0.675.
The corresponding values for `CCc1nc(-c2cccc(C)c2)c(-c2ccnc(NC(=O)c3ccccc3)c2)s1` are 1.19, -0.503, -0.305 and 0.48.
Compound `CCN(CC)CCOC(=O)C1(C2CCCCC2)CCCCC1` [Dicyclomine HCl] registered a nucleus area z-score in test [1] of 1.75. The “total neurite length per nucleus (z-score)” value in test [2] is -0.558. For the same compound, in test [3], the nucleus roundness z-score was -0.0144. Moreover, the “KCl-induced FOS+/EGR-1+ double-positive nuclei fraction z-score” value in test [4] worked out at 0.0738.
The corresponding values for `CC[C@H]1OC(=O)C[C@@H](O)[C@H](C)[C@@H](O[C@@H]2O[C@H](C)[C@@H](O)[C@H](N(C)C)[C@H]2O)[C@@H](CCN2C[C@H](C)C[C@H](C)C2)C[C@@H](C)C(=O)/C=C/C(C)=C/[C@@H]1CO[C@@H]1O[C@H](C)[C@@H](O)[C@@H](OC)[C@H]1OC` [Tilmicosin] are -1.23, 0.894, 0.586 and -6.48.
For the compound `CC1(COc2ccc3c(c2)ncn3-c2ccc3cccc(N4CCC(N)CC4)c3n2)COC1`, the nucleus area z-score in test [1] was found to be 0.165. In test [2], the “total neurite length per nucleus (z-score)” value was 0.72. Further, in test [3], the nucleus roundness z-score is -0.381. For the same compound, in test [4], the “KCl-induced FOS+/EGR-1+ double-positive nuclei fraction z-score” value was found to be 0.108.
The corresponding values for `CO[C@H]1C[C@@H]2CC[C@@H](C)[C@@](O)(O2)C(=O)C(=O)N2CCCC[C@H]2C(=O)O[C@H]([C@H](C)C[C@@H]2CC[C@H](n3cnnn3)[C@H](OC)C2)CC(=O)[C@H](C)/C=C(\C)[C@@H](O)[C@@H](OC)C(=O)[C@H](C)C[C@H](C)/C=C/C=C/C=C/1C` [Zotarolimus(ABT-578)] are -3.13, -0.926, -3.99 and -0.918.
The corresponding values for `O=C(O)CNC(=O)c1nc(Cl)c2ccccc2c1O` are -0.00601, 1.02, 0.407 and 0.211.
